PubChem BioAssay AID743121 – NCATS | 2013
This is one part, drawn at random, of about 26,000 deposited reagents. 167 of them (0.63%) were called active. 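Calls are per gene from RSA p-values that are not deposited; an individual active-marked siRNA can sensitise only weakly.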 Entries without a mark were called inactive. The numbers tell different reagents against one gene apart.

Screen: 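Partners whose loss is lethal together with topoisomerase I blockade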 (primary screen)
Cell system: MDA-MB-231 cells, a human breast cancer line
Reagent: single siRNA against human genes, 20 nM siRNA (0.8 pmol per well)
Timing: 120 h (drug added 48 h after transfection, read 72 h later)
Treatment: camptothecin 20 nM (about EC30) for 72 h; vehicle 0.1% DMSO in parallel plates
Detection: 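Cell viability by ATP luminescence (CellTiter-Glo) as % of non-targeting siRNA wells, and the log2 ratio of viability without drug over viability with camptothecin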
Scale: log2 vehicle/camptothecin viability: higher = stronger sensitisation to camptothecin; viability with camptothecin and viability without drug: higher = more viable cells
Call rule: 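Each gene scored by redundant siRNA activity (RSA) over its individual siRNA ratios; a gene is called active at p < 0.001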

gene | reagent no. | log2 vehicle/camptothecin viability | viability with camptothecin (% of control) | viability without drug (% of control)
IL36B (interleukin 36 beta) | 1 | -0.234 | 105 | 89.5
IL36B (interleukin 36 beta) | 2 | -0.182 | 60.9 | 53.7
IL36B (interleukin 36 beta) | 3 | -0.267 | 114 | 95
USP50 (ubiquitin specific peptidase 50) | 1 | -0.0111 | 90.6 | 89.9
USP50 (ubiquitin specific peptidase 50) | 2 | -0.221 | 117 | 100
USP50 (ubiquitin specific peptidase 50) | 3 | -0.0687 | 118 | 112
USP50 (ubiquitin specific peptidase 50) | 4 | -0.0524 | 66.4 | 64
ABCG2 (ATP binding cassette subfamily G member 2 (JR blood group)) | 1 | -0.273 | 51.3 | 42.4
ABCG2 (ATP binding cassette subfamily G member 2 (JR blood group)) | 2 | -0.292 | 94.4 | 77.1
ABCG2 (ATP binding cassette subfamily G member 2 (JR blood group)) | 3 | 0.0159 | 70.4 | 71.1
ABCG2 (ATP binding cassette subfamily G member 2 (JR blood group)) | 4 | -0.314 | 120 | 96.3
SPARC (secreted protein acidic and cysteine rich) | 1 | -0.322 | 88.7 | 70.9
SPARC (secreted protein acidic and cysteine rich) | 2 | 0.0724 | 67.9 | 71.3
SPARC (secreted protein acidic and cysteine rich) | 3 | -0.162 | 106 | 94.9
SPARC (secreted protein acidic and cysteine rich) | 4 | -0.694 | 84.1 | 52

Continued (3 carried over from the part before).
gene | reagent no. | log2 vehicle/camptothecin viability | viability with camptothecin (% of control) | viability without drug (% of control)
SPARC (secreted protein acidic and cysteine rich) | 2 | 0.0724 | 67.9 | 71.3
SPARC (secreted protein acidic and cysteine rich) | 3 | -0.162 | 106 | 94.9
SPARC (secreted protein acidic and cysteine rich) | 4 | -0.694 | 84.1 | 52
RBBP4 (RB binding protein 4, chromatin remodeling factor) | 1 | -0.07 | 78.3 | 74.6
RBBP4 (RB binding protein 4, chromatin remodeling factor) | 2 | 0.0479 | 67.2 | 69.5
RBBP4 (RB binding protein 4, chromatin remodeling factor) | 3 | -0.136 | 109 | 98.8
RBBP4 (RB binding protein 4, chromatin remodeling factor) | 4 | -0.139 | 91.9 | 83.5
TRIM64 (tripartite motif containing 64) | 1 | 0.373 | 17.6 | 22.7
NEUROD6 (neuronal differentiation 6) | 1 | -0.448 | 89.5 | 65.6
NEUROD6 (neuronal differentiation 6) | 2 | -0.407 | 13.7 | 10.3
NEUROD6 (neuronal differentiation 6) | 3 | -0.365 | 97.4 | 75.6
CDH20 (cadherin 20) | 1 | -0.186 | 39.1 | 34.4
CDH20 (cadherin 20) | 2 | -0.462 | 85.3 | 61.9
CDH20 (cadherin 20) | 3 | -0.176 | 84 | 74.4
ZSCAN22 (zinc finger and SCAN domain containing 22) | 1 | -0.441 | 102 | 75
ZSCAN22 (zinc finger and SCAN domain containing 22) | 2 | -0.0928 | 33.6 | 31.5
ZSCAN22 (zinc finger and SCAN domain containing 22) | 3 | 0.147 | 18.7 | 20.7
ZSCAN22 (zinc finger and SCAN domain containing 22) | 4 | -0.0422 | 47.6 | 46.2
